# Laboratory results from PubChem BioAssay AID1347423 (Functional Genomics Laboratory (NCATS/FGL), 2020).
# Screen size: about 52,000 sequences; about 210 (0.4%) were called active.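 Rule for the calls: active = gene whose silencing raises cell survival under the drug, median off-target-corrected z-score across its silencing RNAs 2 or more; inactive = the rest.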 Some of the results follow.
# Assay: Resistance to Poly (ADP-Ribose) Polymerase inhibitor: Gene Identification via Genome-wide siRNA Screen
# Conditions: mouse BRCA2 R2336H ES cells, olaparib, CellTiter-Glo viability; hits give high values
# Procedure, shortened: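 Genome-wide siRNA screen (3 siRNAs/gene, 20 nM) in mouse ES cells carrying hypomorphic BRCA2 R2336H; olaparib 500 nM added 48 h post-transfection, CellTiter-Glo viability 72 h later. Normalized to plate-median negative control; MAD z-scores, gene median, seed-adjusted.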
row,Sequence,z-score
1,GGUGUUUUCUCCAGUUAAGTT against Hfe,inactive: -0.34
2,CCCAUAUGUGGUUUGUAAUTT against Cryaa,inactive: 0.524
3,GCUGACAACCGAUGACAAUTT against Gja8,inactive: 1.35
4,CGGGUCACAAGGCUUCAAATT against D4Ertd22e,inactive: -1.42
5,CCAAAGAUGUUAUUGGACCTT against Olfr1152,inactive: -0.292
6,CCAGAGAAGUGGCAGCACUTT against Olfr108,inactive: 0.334
7,GCUUUACUAUGUGAGAAAUTT against Ryk,inactive: 0.134
8,GGUCUCCAUGGAUUUAUGCTT against Phf7,inactive: -0.676
9,CCAACAAGUGAGCUGCAGATT against Olfr724,inactive: -1.18
10,CGUGUGUGUCAUGUUACGGTT against Dusp2,inactive: -1.31
11,GGUCUUCAAGUCAAUCUUGTT against Chst10,inactive: 0.402
12,GGAAAAUUUGCCUGGACCGTT against Cxcl4,inactive: 0.842
13,GGACCAUUCUGCUAGAUGCTT against Tnfrsf1a,inactive: -0.208
14,GGUCUACAGCUACCUGAAUTT against Npc2,inactive: -1.63
15,GGGUCUGUUCGAUUCAUUATT against Mdfi,inactive: 0.977
16,CUUCCGAUUUCCAAAUCCUTT against 1700020N01Rik,inactive: -0.674
17,CCACUGUUGUGCAAUGCUUTT against Snx25,inactive: -0.142
18,CCCAAAAGCAAACUUGCUGTT against Hp1bp3,inactive: -0.244
19,GGAGCUCAAGGAAUAGUGUTT against Mapk8,inactive: -0.237
20,GAUCAAAGCGGCGUACUACTT against Wbscr18,inactive: -0.841
21,GGUCUGAUUCACCAUAAUUTT against Sspn,inactive: -0.914
22,GGACAAAUGGUAUUGUAGUTT against 6330578E17Rik,inactive: 0.705
23,GCCAGACAAAGGUACACUATT against Hmox2,inactive: -0.181
24,GGAAGAGUGACCUUAAGUCTT against 6030405P05Rik,inactive: 0.112
25,GCUCCUGGGAUACGUAUUATT against Bat5,inactive: 0.113
26,GGGUGGUAGAUUUAUACUATT against Crygc,inactive: 1.88
27,GGAAAUGACCCAUACUGUUTT against Tia1,inactive: 0.438

row,Sequence,z-score
1,GGAGGUGGAAUGAGGAAACTT against Cck,inactive: 0.322
2,GGUAAAAAGUGCCAUUAGATT against Olfr1188,inactive: 0.148
3,GCAACCGAAAGAUAAAGCCTT against BC005752,inactive: 0.172
4,CCAGGUCGAACUUCUGUGCTT against Slc39a8,inactive: -1.22
5,CCAAAGUCUGACACGUUUGTT against Soat2,inactive: 0.0407
6,GUACCUGAAGCCAGUGUUGTT against Hrmt1l3,inactive: 1.77
7,GCCAAUUGGCCUUUGCUAUTT against Olfr1289,inactive: 0.217
8,CCAGGCACUUAAGGAAAUUTT against Bloc1s1,inactive: -1.23
9,GGCGGGCAUUUAACAGUGUTT against Dnajc2,inactive: -0.219
10,GGAAGUAGGACUAGCCAUCTT against Akr1c6,inactive: 1.85
11,CCUCCUCAGUAUCCGUAUATT against Cpsf5,inactive: -1.09
12,CCACAGAGUUCCUAUACAATT against Pfkl,inactive: -0.188
13,GGAGAAUUACGGUGCCAACTT against Ncoa3,inactive: 0.354
14,GCAGGUGAUUGUGAUUGAATT against Ddx46,inactive: -1.79
15,GGCUGAAGUUCAAGGAUUGTT against V1rb2,inactive: 1.84
16,GGACUUUUCUCUCCACCACTT against BC014805,inactive: 1.03
17,GGAUAAUCAUUCUUGUCACTT against Ptgfr,inactive: -0.205
18,GGACUAUAGAUCCUAAGUCTT against Kcnab2,inactive: -1.35
19,GCUACAGGAGUCGACUUCATT against Lef1,inactive: -1.71
20,GGUACAUAUGUGAUGACCGTT against Cdh4,inactive: 0.312
21,GGAGCUUAAGCAGUUCACATT against Traf5,inactive: -0.672
22,CCAUGCCGCUUCUUAGUCATT against Oaz1,inactive: 1.14
23,CCUGAUUGAUUUUGUUCCCTT against V1rd11,inactive: 0.832
24,CGCAUUAAGGGUUAAAGAATT against Plekhf1,inactive: -0.354
25,CCUAUGAUUCAGCAAUACUTT against Col17a1,inactive: 1.91
26,CCCAGUGCAUCGAAAAGCUTT against Kif21a,inactive: -1.97
27,GGACUACAGAACAAAAUGUTT against Zfp533,inactive: -1.4

row,Sequence,z-score
1,CGUCUUCCCUGUUUACUUATT against Susd2,inactive: 0.339
2,CCACCAAAGCAGCAGCCAATT against Polr2k,inactive: -3.28
3,GGAAAUCACAGAAGGAGAUTT against Fxr2h,inactive: -0.645
4,GGAGUGAAGAGAAAUGAGATT against Wbscr5,inactive: 0.139
5,GGCGCAAUGUCAAUGUGAATT against Gzmb,inactive: -0.22
6,GGGUCGAAGGUCAGAACAATT against Ptprh,inactive: -1.33
7,GGUUUUCUCAGACUACUCGTT against BC059845,inactive: 0.894
8,GCCUACAUUCAACAAACGCTT against Gcnt2,inactive: -0.526
9,GGGCAUCAUAGACUGCGUGTT against Slc25a5,inactive: 0.774
10,GCCGUUCAUUUCAACCGUGTT against Wdr5,inactive: -2.74
11,GGCAGUUGUGAACUUUCUCTT against 1200003M09Rik,inactive: 0.0307
12,GGACAGUAAUAUGAUGAGCTT against Lzts1,inactive: 0.651
13,GGUAAAACAGGUAUGUCGCTT against 2610204K14Rik,inactive: 0.867
14,GGAAGUCUCUCGUAUUAUATT against E430025E21Rik,inactive: 1.28
15,GGUUCAGAAGGAAGUUUUGTT against Jmy,inactive: -0.431
16,GCUAUUACGGUAAUCGAGCTT against Dnajc7,inactive: -2.11
17,GUGGCGAUAUCCAGAGAUGTT against V1rc26,inactive: -0.61
18,GGACAUCCGAGCCAUUCUATT against Spata2,inactive: -1.02
19,GGAUCGACAGCAUCAUUCUTT against AY487415,inactive: 1.74
20,CCCGAGAAACCUGGAGUCUTT against Prss19,inactive: -0.0359
21,GGAAUAUGCAUAUUCAUGATT against Olfr350,inactive: 0.983
22,GGCAUCUGGUAACUUUUACTT against Trim59,inactive: 1.34
23,GGAGCAAGCUCAGCUUACCTT against Ube3a,inactive: 0.491
24,CCAACCUUGCCCAUUUCCATT against Lsp1,inactive: 1.37
25,GGAUGAGUUGUCAUUGAUATT against Nck1,inactive: 0.591
26,CGGAAGGAGAGAAUGACAGTT against 1110008P14Rik,inactive: -1.34
27,GCUGUACCUAGAACACAACTT against Fmod,inactive: 0.692

# An excerpt of these results, tab-delimited.
row	Sequence	z-score
14	GGUCUACAGCUACCUGAAUTT against Npc2	inactive: -1.63
2	CCACCAAAGCAGCAGCCAATT against Polr2k	inactive: -3.28
4	GGAGUGAAGAGAAAUGAGATT against Wbscr5	inactive: 0.139

# Looked up one by one from above:
row,Sequence,z-score
23,CCUGAUUGAUUUUGUUCCCTT against V1rd11,inactive: 0.832
10,CGUGUGUGUCAUGUUACGGTT against Dusp2,inactive: -1.31

# Going on with the list:

row,Sequence,z-score
1,GCGAGAGAUCCCUCUGAAATT against Pigs,inactive: 0.752
2,GGCAUGCUGGAAUCAAACATT against Dppa2,inactive: 1.26
3,GGAAUGGGCAGUAUGAGUUTT against 9530014D17Rik,inactive: -0.135
4,GGUUCGUAAAGUAAAUGAGTT against 9930036E21Rik,inactive: -0.0495
5,GGUGAUCAACAAUGGCAAUTT against 3110037K17Rik,inactive: -0.708
6,GGGCACCUGACAAAAUUGCTT against Dom3z,inactive: 0.867
7,GAAGCUGUCCUCAGCUCCATT against Olfr491,inactive: -0.291
8,UCAUAGCAGAGAUUAGAAUTT against 4933413G11Rik,inactive: -0.0167
9,GGUUGAAACUUUUUCUGGUTT against Rps7,inactive: -2.8
10,GGUGAAGAAAGCGGAAAAGTT against Cstf3,inactive: 1.2
11,CCUAUCAAACUGACUUCAUTT against Gats,inactive: -0.957
12,GGCUCACUCAUUUGUCAGATT against Soat1,inactive: 0.456
13,GCCAUUAGCCUGCUACCUGTT against BC021608,inactive: 0.947
14,GGAGACCAAAUGCUAGACGTT against 2510049I19Rik,inactive: -0.244
15,GGCCAUUAUCAUCAAAGUATT against 5730421E18Rik,inactive: 0.145
16,GGAAAUGCCACAGCUGUACTT against Foxn4,inactive: -2.72
17,GGACCCUGCUUUUUAAAAATT against D230010M03Rik,inactive: 0.282
18,GGAUAGAUUUUAGGUAUUGTT against Htr5b,inactive: -0.468
19,GGACUUCCACCGAAAGUUUTT against Rasd1,inactive: -0.0999
20,GGAGACCAGUACCCUCUGATT against Cmklr1,inactive: -2.16
21,CGGUCAAGUUUUGAUUCCATT against Prkaa2,inactive: -2
22,GGGAGACGCAAAGCCUUAUTT against Olfr1238,inactive: -2.74
23,GCCUGCAUUCCAUAACACUTT against Prom1,inactive: 1.06
24,CGGAUGAGGUUUCUUUUAUTT against Phkb,inactive: 0.105
